# Measurements from PubChem BioAssay AID540276 (National Center for Advancing Translational Sciences (NCATS), 2011).
# Several values for one entry are separate records, joined by “and”; a condition that tells them apart may be missing. Equal entries are not always repeated. Screen size: about 300,000 compounds; about 5,400 (1.8%) were called active. Inconclusive means that the source gave no clear call. Such entries were picked first, then a sample of the others. Calls come from the whole dose curve; tested in HEK293 cells. Where the call is inconclusive, the potency comes from a doubtful curve fit.
# Test: qHTS for inhibitors of binding or entry into cells for Marburg Virus
# Conditions: Marburg virus pseudotyped entry inhibition, cell reporter; series mostly up to 37.8 µM
# Potency is the fitted concentration of half-maximal effect.
row,Compound,Potency
1,COc1cccc(-c2noc(-c3ccc(Br)o3)n2)c1,"inconclusive: 10 µM [inhibitor, single point]"
2,CN(C)C(CNC(=O)C1CCN(S(=O)(=O)c2cccc(Cl)c2Cl)CC1)c1ccccc1 (stereo not drawn),"inconclusive: 14.1 µM [inhibitor, single point]"
3,O=c1c2ccccc2[nH]c2ccc(O)cc12,inactive
4,COc1ccccc1CN(C)CC(=O)NC1CCCc2ccccc21 (stereo not drawn),"inconclusive: 20 µM [inhibitor, single point]"
5,Cc1nn(C2CCOC(C)(C)C2)c2c1C(c1ccc3c(c1)OCO3)SCC(=O)N2 (stereo not drawn),inactive
6,Nc1nc(SCC(=O)N2CCOCC2)n[nH]1,"inconclusive: 7.08 µM [activator, full curve, poor fit]"
7,CN(C)S(=O)(=O)c1cccc(NC(=O)COC(=O)/C=C/c2cccs2)c1,"inconclusive: 35.5 µM [inhibitor, single point]"
8,Cc1cc(Cl)cc(C)c1OCCNCc1ccccc1,"inconclusive: 35.5 µM [inhibitor, single point]"
9,O=C(NCCc1ccncc1)c1ccc2nc(Cc3cccc(Cl)c3)oc2c1,inactive
10,COc1ccc(NC2=CC(=O)N(C)C2=O)cc1,"inconclusive: 3.55 µM [activator, single point]"
11,CC(C)Cn1c(=O)c2ccccc2n2c(CCC(=O)NCc3ccccc3Cl)nnc12,inactive
12,COC(=O)c1ccc(COc2ccccc2/C=C/C(=O)c2ccc(OCC(=O)O)cc2)cc1,"inconclusive: 20 µM [inhibitor, partial curve, poor fit]"
13,Cc1ccccc1N1C(=O)CC1(C#N)c1ccc(OCc2ccccc2)cc1 (stereo not drawn),"inconclusive: 10 µM [inhibitor, partial curve]"
14,Cc1cccc(Cn2c(O)c(N=NC(=S)Nc3ccccc3F)c3ccccc32)c1,"inconclusive: 5.17 µM [inhibitor, partial curve, poor fit]"
15,COCc1cc(CN2CCCC2)c(O)c2ncccc12,active: 25.9 µM
16,CCOC(=O)C1=C(CC)OC(N)=C(C#N)C1c1ccc(NC(C)=O)cc1 (stereo not drawn),inactive
17,CCOc1cc(NC(=S)NCCCN2CCOCC2)c(OCC)cc1NC(=O)CC(C)C,inactive
18,COc1ccc(-c2cc(C(=O)OCC(=O)c3ccc(C)cc3)c3cccc(Cl)c3n2)cc1,"inconclusive: 11.2 µM [inhibitor, single point]"
19,C=CCn1c(=NC(=O)c2ccc(S(=O)(=O)N3CCc4ccccc4C3)cc2)sc2cc(S(N)(=O)=O)ccc21,"inconclusive: 11.2 µM [inhibitor, partial curve, poor fit]"
20,COc1ccc(-c2cc3nc(C)c(CCC(=O)N4CCN(c5cccc(Cl)c5)CC4)c(C)n3n2)c(OC)c1,inactive
21,Cn1c(CSCc2ccccc2)nnc1SCC(=O)Nc1nccs1,inactive
22,CC(C)NCC(O)COCCOc1ccc(Br)cc1 (stereo not drawn),"inconclusive: 2.82 µM [activator, partial curve, poor fit]"
23,Cc1ccc(NC(=O)c2cnc(SCC(=O)NCC3CCCO3)n(C)c2=O)cc1 (stereo not drawn),"inconclusive: 25.1 µM [inhibitor, single point]"

# By substructure, those above containing a cyano group.
row,Compound,Potency
13,Cc1ccccc1N1C(=O)CC1(C#N)c1ccc(OCc2ccccc2)cc1 (stereo not drawn),"inconclusive: 10 µM [inhibitor, partial curve]"
16,CCOC(=O)C1=C(CC)OC(N)=C(C#N)C1c1ccc(NC(C)=O)cc1 (stereo not drawn),inactive

# Gathered by group: those above with an NH in an aromatic ring
row,Compound,Potency
3,O=c1c2ccccc2[nH]c2ccc(O)cc12,inactive
6,Nc1nc(SCC(=O)N2CCOCC2)n[nH]1,"inconclusive: 7.08 µM [activator, full curve, poor fit]"

# Pulled by structure from the entries so far:
row,Compound,Potency
21,Cn1c(CSCc2ccccc2)nnc1SCC(=O)Nc1nccs1,inactive
8,Cc1cc(Cl)cc(C)c1OCCNCc1ccccc1,"inconclusive: 35.5 µM [inhibitor, single point]"

# Additional compounds follow.

row,Compound,Potency
1,CC1CCCC(NC(=O)NC(=O)CCl)C1C (stereo not drawn),inactive
2,O=C(CN1CCCCC1)Nc1c2c(nc3ccccc13)N(c1ccccc1)CC2,"inconclusive: 22.4 µM [inhibitor, single point]"
3,NC(=O)c1ccc[n+](CC(=O)c2ccccc2)c1,"inconclusive: 11.2 µM [activator, partial curve]"
4,CC(C)(CNCc1ccccc1)NS(=O)(=O)c1ccc(Cl)cc1,"inconclusive: 31.6 µM [inhibitor, single point]"
5,CC(C)NS(=O)(=O)c1ccc(Br)c(C(=O)OC(C)C(=O)NC2CCCCC2C)c1 (stereo not drawn),"inconclusive: 12.6 µM [inhibitor, single point]"
6,CCc1ccc(/C(C)=N\Nc2ccc([N+](=O)[O-])cc2)cc1,"inconclusive: 4.61 µM [activator, full curve, poor fit]"
7,CCN1c2ccccc2-c2nc3ccccc3n2C1c1cccnc1 (stereo not drawn),"inconclusive: 16.4 µM [inhibitor, single point]"
8,Cc1cc(C)n2nc(SCC(=O)c3c(N)n(CC(C)C)c(=O)n(C)c3=O)nc2n1,"inconclusive: 2.51 µM [inhibitor, full curve, poor fit]"
9,Cc1cc(=O)n2nc(-c3ccc(C(F)(F)F)cc3)sc2n1,inactive
10,CC(C)c1ccc2c(c1)C1Cc3ccccc3C1N2 (stereo not drawn),"inconclusive: 6.51 µM [activator, partial curve]"
11,Cc1[nH][nH]c(=O)c1C(c1ccc(-c2ccc(F)cc2)o1)c1c(C)[nH][nH]c1=O,inactive
12,COc1ccccc1OCc1csc(NC(=O)c2ccco2)n1,inactive
13,COC(=O)CSc1nc(C)c(C(C)=O)cc1C#N,"inconclusive: 14.6 µM [activator, partial curve, poor fit]"
14,CN(CC(=O)NCCCc1ccccc1)S(=O)(=O)c1ccc(Br)cc1,inactive
15,CN(C(=O)c1cccc(C#N)c1)c1nnc(-c2ccccn2)s1,"inconclusive: 11.2 µM [activator, partial curve, poor fit]"
16,COc1c2ccoc2c(OC[C@@H](O)C(C)(C)O)c2oc(=O)ccc12,"inconclusive: 23.1 µM [activator, partial curve, poor fit]"
17,Cn1c(=O)c([N+](=O)[O-])c(NCc2ccccc2Cl)c2ccccc21,"inconclusive: 11.2 µM [inhibitor, partial curve, poor fit]"
18,Cc1ccc(S(=O)(=O)NC(=O)NCCCCNC(=O)NS(=O)(=O)c2ccc(C)cc2)cc1,inactive
19,O=c1nc(Nc2ccccc2)oc2ccccc12,inactive
20,O=C1c2ccccc2S(=O)(=O)N1CC1CC(c2ccc(Cl)cc2)=NO1 (stereo not drawn),"inconclusive: 0.116 µM [activator, full curve, poor fit]"
21,COC(CN(C(=O)CCl)C(C(=O)NC1CCCCC1)c1ccc(C)cc1)OC (stereo not drawn),"inconclusive: 35.5 µM [inhibitor, single point]"
22,COc1ccc(S(=O)(=O)N(CCc2ccccc2)CC(=O)N/N=C/c2ccc3c(c2)OCO3)cc1,"inconclusive: 35.5 µM [activator, single point]"
23,COc1ccc(S(=O)(=O)NCCSCc2ccc(Cl)cc2)cc1NC(C)=O,"inconclusive: 0.282 µM [inhibitor, full curve, poor fit]"

row,Compound,Potency
1,Nc1ccn([C@@H]2O[C@H](CO)[C@@H](O)[C@@H]2O)c(=O)n1,"inconclusive: 282 nM [inhibitor, full curve, poor fit] and inconclusive: 5.8 µM [inhibitor, full curve, poor fit]"
2,Cc1ccccc1-n1nnnc1SC(C)C(=O)Nc1ccc(N2CCN(C)CC2)cc1 (stereo not drawn),"inconclusive: 5.62 µM [inhibitor, full curve, poor fit]"
3,CCn1c(=O)cc(SCC(=O)Nc2cc(OC)c(OC)c(OC)c2)c2ccccc21,inactive
4,Cc1ccc(C(=O)n2nc(-c3ccco3)nc2N)cc1,inactive
5,Nc1ncnc2c1ncn2C1CCCO1 (stereo not drawn),"inconclusive: 5.17 µM [inhibitor, single point] and inconclusive: 15.8 µM [inhibitor, single point]"
6,O=C(C1Cc2ccccc2CN1S(=O)(=O)c1ccc(F)cc1)N1CCCCC1 (stereo not drawn),inactive
7,Cn1c(=O)c2c(nc(SCC(=O)Nc3ccc(OC(F)(F)F)cc3)n2Cc2cccc(C(F)(F)F)c2)n(C)c1=O,inactive
8,N#Cc1ccc(-c2ccc(OCC(O)CN3CCCCC3)cc2)cc1 (stereo not drawn),"inconclusive: 12.6 µM [inhibitor, single point]"
9,O=S(=O)(Nc1ccc(-c2csc(-c3ccccc3)n2)cc1)c1ccccc1,"inconclusive: 35.5 µM [inhibitor, single point]"
10,c1ccc(Sc2ncnc3ccccc23)cc1,inactive
11,CCCC(=O)NC(c1ccccc1)c1ccc2cccnc2c1O (stereo not drawn),"inconclusive: 2.82 µM [inhibitor, full curve, poor fit]"
12,COc1cccc(/C=N/NC(=O)C(=O)N2CCCCCC2)c1O,"inconclusive: 35.5 µM [inhibitor, single point]"
13,O=C(NN=C1CCCCC1)NC1CCCCC1,"inconclusive: 0.112 µM [activator, full curve, poor fit]"
14,COc1ccc(C(=O)Nc2cccc3c2C(=O)NC3=O)cc1S(=O)(=O)N1CCOCC1,"inconclusive: 0.13 µM [inhibitor, full curve, poor fit]"
15,CC1(C)Nc2ccc(O)cc2-c2c1ssc2=S,inactive
16,O=C(OCCOc1ccccc1)c1n[nH]c2ccccc12,inactive
17,COc1ccccc1N(C)S(=O)(=O)c1ccc(C(=O)OCC(=O)N(C)c2ccccc2)cc1,"inconclusive: 35.5 µM [inhibitor, single point]"
18,C(=Cc1nc(-c2ccccc2)oc1Nc1ccc2ccccc2c1)c1ccccc1,"inconclusive: 5.31 µM [activator, single point]"
19,Cc1ccsc1/C=N/NC(=O)c1ccc2ccccc2c1,"inconclusive: 7.08 µM [inhibitor, partial curve, poor fit]"
20,CCOC(=O)c1c(NC(=O)c2nn(CC)cc2Br)c(C#N)cn1-c1ccccc1,"inconclusive: 29.1 µM [inhibitor, single point]"
21,N#CCCN(C(=O)Nc1ccccc1)c1ccccc1,"inconclusive: 0.398 µM [activator, partial curve, poor fit]"
22,CCCS(=O)(=O)c1ncc(Cl)c(C(=O)N(Cc2ccccc2)Cc2ccco2)n1,"inconclusive: 31.6 µM [inhibitor, single point]"
